Source: patent US20080299140A1, “Immunogenic Composition and Peptide Sequences for Prevention and Treatment of an Hsv Condition” (priority 2002, published 2008)

Test system: HLA-DR and HLA-DP molecules
Assay: MHC class II binding assays, panel of twelve HLA class II molecules (number of alleles bound)
Details: binding affinity less or equal to 1000 nanomolar

CSCC[C@H](NC(=O)[C@H](CCCCN)NC(=O)[C@H](CC(C)C)NC(=O)[C@H](CO)NC(=O)[C@H](C)NC(=O)[C@H](CC(=O)O)NC(=O)[C@@H](NC(=O)[C@H](CC(C)C)NC(=O)[C@H](C)NC(=O)[C@H](Cc1ccc(O)cc1)NC(=O)[C@@H](N)CCCCN)C(C)C)C(=O)N[C@@H](C)C(=O)N[C@@H](CC(=O)O)C(=O)N1CCC[C@H]1C(=O)N[C@@H](CC(N)=O)C(=O)N[C@@H](CCCNC(=N)N)C(=O)N[C@@H](Cc1ccccc1)C(=O)N[C@@H](CCCNC(=N)N)C(=O)NCC(=O)N[C@@H](CCCCN)C(=O)N[C@@H](CC(=O)O)C(=O)N[C@@H](CC(C)C)C(=O)N1CCC[C@H]1C(=O)O [HSV 29]
number of alleles of human HLA class II molecules bound: ≥ 3
